This is one part of the list.
How the values were obtained:
Assay in all cases: log2 fold change, soluble protein after heating vs DMSO (PISA); higher = thermal stabilisation; K562 lysate, 10 uM; active = over 0.2 and 3.5 SD of the protein, either way, in both replicates (recomputed)
nilotinib = compound: Cc1cn(-c2cc(NC(=O)c3ccc(C)c(Nc4nccc(-c5cccnc5)n4)c3)cc(C(F)(F)F)c2)cn1 [nilotinib]
Method in brief: (§1)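 Log-two fold change in thermal stability relative to solvent controls is reported from duplicates. For each sample, crude K562 extract from dounce-homogenised pellets in PBS pH 7.4 with 1 mM MgCl2, at 1 mg/mL protein, was treated with 10 μM compound for 30 min. Aliquots heated for 3 min across 48°C-58°C were pooled, brought to 0.5% NP-40 at 4°C and cleared at 21,000xg for 90 min. The supernatant was quantified by TMTpro 16plex LC-MS/MS with channel sums equalised.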

Amino acid sequences for entries named in this document (tags omitted). A change or cut given only in a name is not applied to a line headed by its entry.
UniProt Q8WUD1: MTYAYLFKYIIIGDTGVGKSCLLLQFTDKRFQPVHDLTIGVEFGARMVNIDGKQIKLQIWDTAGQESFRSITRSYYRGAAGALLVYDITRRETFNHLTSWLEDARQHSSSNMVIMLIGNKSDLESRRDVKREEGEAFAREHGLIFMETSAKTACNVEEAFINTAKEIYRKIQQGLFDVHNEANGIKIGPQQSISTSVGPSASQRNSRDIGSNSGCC
UniProt Q9NP72: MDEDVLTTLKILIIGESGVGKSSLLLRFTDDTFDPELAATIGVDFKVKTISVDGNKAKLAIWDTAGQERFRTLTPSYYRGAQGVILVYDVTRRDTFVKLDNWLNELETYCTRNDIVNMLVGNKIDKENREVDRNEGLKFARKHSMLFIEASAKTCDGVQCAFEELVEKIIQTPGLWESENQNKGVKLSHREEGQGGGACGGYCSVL
UniProt Q53S08: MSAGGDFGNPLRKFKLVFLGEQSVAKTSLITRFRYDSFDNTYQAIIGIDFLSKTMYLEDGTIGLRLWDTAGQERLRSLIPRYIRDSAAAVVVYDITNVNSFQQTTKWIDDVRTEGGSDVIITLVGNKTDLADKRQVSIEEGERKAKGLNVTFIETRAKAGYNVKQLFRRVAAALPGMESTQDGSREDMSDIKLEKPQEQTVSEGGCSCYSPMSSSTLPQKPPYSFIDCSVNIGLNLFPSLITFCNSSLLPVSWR
UniProt Q96I23: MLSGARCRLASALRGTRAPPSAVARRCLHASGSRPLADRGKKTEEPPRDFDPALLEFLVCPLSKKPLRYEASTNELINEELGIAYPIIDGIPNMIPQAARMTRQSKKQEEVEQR
UniProt P47897: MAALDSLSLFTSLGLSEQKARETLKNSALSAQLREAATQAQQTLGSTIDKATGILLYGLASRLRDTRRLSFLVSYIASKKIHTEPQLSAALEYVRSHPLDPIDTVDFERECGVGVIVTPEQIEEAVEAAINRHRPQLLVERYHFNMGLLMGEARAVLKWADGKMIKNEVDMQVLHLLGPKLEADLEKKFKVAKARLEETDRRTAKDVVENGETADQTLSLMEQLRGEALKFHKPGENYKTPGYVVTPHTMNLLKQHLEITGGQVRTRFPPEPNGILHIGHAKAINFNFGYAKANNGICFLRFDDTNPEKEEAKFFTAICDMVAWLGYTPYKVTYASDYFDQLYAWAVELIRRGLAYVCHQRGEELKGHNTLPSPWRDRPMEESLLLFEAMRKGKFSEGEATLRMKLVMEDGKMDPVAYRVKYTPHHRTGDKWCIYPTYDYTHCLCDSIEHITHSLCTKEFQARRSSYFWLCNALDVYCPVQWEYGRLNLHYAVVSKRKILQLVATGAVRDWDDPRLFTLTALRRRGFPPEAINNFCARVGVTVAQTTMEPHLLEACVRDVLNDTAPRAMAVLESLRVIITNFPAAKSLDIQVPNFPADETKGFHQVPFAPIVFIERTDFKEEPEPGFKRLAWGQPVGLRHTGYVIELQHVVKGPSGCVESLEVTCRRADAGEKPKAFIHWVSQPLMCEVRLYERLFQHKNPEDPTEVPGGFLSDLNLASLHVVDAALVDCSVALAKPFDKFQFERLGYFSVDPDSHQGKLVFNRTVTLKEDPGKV
UniProt Q9NXS2: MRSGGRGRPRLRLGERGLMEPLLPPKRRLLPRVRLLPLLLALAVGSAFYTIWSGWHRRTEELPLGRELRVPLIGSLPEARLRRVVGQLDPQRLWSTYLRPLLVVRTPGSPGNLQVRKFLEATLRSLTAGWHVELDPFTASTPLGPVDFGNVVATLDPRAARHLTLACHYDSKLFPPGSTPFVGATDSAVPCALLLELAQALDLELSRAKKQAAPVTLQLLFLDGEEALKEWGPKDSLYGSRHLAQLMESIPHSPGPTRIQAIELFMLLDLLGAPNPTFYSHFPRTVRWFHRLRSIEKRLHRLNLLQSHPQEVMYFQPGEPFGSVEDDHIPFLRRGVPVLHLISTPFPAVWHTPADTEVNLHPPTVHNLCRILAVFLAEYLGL
UniProt P61006: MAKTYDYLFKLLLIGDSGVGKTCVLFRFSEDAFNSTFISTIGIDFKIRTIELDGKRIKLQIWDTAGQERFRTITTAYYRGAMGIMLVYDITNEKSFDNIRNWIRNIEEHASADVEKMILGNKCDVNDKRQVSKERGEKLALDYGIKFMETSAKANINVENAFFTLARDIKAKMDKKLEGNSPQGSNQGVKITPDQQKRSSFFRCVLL
UniProt Q99638: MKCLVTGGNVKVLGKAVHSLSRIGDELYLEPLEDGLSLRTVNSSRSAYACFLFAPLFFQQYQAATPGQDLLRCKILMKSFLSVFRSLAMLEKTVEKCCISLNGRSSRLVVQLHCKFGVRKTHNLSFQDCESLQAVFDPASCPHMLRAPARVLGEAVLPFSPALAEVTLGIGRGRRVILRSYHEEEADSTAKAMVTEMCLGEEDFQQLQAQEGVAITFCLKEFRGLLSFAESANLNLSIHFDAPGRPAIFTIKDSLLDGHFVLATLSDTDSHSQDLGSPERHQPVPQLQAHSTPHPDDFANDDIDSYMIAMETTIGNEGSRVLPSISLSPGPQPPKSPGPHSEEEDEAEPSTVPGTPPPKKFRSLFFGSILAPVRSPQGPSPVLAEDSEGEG
UniProt Q6VN20, whole entry, looked up: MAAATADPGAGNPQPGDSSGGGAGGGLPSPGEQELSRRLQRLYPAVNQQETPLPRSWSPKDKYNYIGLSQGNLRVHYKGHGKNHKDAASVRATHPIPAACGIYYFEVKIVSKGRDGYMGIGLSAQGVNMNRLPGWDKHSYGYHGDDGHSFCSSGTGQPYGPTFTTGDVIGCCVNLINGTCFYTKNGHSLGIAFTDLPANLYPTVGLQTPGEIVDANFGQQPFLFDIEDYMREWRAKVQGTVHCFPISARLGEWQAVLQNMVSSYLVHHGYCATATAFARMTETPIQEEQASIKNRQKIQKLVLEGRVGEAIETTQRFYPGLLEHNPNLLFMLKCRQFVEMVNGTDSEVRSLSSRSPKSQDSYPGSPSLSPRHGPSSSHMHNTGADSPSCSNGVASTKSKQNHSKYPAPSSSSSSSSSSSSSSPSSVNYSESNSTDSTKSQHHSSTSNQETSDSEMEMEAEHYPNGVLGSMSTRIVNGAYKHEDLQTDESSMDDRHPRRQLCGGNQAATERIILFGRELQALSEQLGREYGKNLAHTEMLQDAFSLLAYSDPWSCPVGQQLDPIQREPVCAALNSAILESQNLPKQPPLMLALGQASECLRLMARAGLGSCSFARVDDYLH
UniProt Q9Y620: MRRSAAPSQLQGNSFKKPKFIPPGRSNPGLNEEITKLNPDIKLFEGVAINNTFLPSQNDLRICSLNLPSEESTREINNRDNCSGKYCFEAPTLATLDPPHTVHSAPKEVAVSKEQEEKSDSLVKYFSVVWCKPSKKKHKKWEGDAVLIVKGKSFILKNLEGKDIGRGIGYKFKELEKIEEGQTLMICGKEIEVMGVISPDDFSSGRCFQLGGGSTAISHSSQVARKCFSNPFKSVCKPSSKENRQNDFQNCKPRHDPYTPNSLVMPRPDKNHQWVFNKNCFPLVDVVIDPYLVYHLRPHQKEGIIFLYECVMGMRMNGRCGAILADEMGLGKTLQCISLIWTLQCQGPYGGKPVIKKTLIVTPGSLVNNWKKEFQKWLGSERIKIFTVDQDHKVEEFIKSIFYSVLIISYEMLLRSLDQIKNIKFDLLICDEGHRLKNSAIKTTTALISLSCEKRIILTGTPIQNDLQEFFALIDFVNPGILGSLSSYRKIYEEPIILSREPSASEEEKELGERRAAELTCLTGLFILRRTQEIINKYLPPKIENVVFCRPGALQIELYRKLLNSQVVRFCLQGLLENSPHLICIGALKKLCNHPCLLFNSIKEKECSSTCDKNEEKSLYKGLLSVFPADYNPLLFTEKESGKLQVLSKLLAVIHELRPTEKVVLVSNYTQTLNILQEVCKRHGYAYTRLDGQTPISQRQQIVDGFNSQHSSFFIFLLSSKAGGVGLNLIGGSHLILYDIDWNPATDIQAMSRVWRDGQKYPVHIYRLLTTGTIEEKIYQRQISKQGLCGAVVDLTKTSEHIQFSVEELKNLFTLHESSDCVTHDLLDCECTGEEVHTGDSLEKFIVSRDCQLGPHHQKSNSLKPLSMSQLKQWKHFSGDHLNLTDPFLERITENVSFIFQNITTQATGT
UniProt Q9UKM9: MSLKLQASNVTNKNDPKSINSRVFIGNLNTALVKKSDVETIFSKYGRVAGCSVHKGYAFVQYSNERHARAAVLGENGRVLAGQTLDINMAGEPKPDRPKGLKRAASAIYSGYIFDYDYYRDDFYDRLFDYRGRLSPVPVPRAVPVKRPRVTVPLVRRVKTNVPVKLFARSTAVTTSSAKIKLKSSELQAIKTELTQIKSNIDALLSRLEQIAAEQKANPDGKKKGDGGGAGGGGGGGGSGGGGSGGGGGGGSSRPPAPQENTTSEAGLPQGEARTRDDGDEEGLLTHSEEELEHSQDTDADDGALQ
UniProt Q2TAL8: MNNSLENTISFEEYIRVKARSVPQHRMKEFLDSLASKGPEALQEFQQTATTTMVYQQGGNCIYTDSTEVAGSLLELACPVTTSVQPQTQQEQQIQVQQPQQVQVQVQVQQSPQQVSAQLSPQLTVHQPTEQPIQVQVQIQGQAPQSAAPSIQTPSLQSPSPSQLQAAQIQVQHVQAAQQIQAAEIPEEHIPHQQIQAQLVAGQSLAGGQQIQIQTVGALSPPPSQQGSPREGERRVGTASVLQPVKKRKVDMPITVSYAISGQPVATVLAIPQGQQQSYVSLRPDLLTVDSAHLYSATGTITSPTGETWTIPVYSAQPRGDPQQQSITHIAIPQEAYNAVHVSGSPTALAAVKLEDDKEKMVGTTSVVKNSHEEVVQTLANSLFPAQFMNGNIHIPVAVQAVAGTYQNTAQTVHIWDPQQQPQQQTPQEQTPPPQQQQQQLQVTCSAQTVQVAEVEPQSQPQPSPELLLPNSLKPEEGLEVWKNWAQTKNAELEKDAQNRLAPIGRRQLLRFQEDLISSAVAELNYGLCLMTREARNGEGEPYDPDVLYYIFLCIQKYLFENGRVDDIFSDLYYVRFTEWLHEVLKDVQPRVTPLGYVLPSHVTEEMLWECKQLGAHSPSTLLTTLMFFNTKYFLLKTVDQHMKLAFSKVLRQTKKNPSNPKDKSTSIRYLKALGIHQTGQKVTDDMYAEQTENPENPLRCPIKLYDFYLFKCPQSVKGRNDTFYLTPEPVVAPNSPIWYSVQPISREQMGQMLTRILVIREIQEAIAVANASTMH
UniProt Q9Y6I8: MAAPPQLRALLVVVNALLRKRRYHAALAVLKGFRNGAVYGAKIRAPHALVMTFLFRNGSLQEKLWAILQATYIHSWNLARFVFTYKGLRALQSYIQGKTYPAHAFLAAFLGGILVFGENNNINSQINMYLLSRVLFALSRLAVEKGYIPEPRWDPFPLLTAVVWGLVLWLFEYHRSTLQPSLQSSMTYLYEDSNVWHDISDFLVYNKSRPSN
UniProt P53611: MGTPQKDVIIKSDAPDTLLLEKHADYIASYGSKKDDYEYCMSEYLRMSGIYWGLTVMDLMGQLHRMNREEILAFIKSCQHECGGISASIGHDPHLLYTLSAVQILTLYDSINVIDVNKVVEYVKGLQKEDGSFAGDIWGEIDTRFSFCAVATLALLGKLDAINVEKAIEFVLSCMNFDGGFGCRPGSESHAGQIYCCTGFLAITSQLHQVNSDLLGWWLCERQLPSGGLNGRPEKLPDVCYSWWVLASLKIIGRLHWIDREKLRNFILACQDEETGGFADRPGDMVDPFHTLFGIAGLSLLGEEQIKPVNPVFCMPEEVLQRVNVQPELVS

[1] = compound: Cc1nc(Nc2n[nH]c3c2CN(C(=O)N[C@H](CN(C)C)c2ccccc2)C3(C)C)c2sccc2n1
Method in brief: as §1

dasatinib = compound: Cc1nc(Nc2ncc(C(=O)Nc3c(C)cccc3Cl)s2)cc(N2CCN(CCO)CC2)n1 [dasatinib]
Method in brief: as §1

[2] = compound: Cc1ncc(-c2ccnc(Nc3ccc(S(C)(=O)=O)cc3)n2)n1C(C)C
Method in brief: as §1

[3] = compound: Cn1cc(-c2ccc3c(c2)CCN3C(=O)Cc2cccc(C(F)(F)F)c2)c2c(N)ncnc21
Method in brief: as §1

quisinostat = compound: Cn1cc(CNCC2CCN(c3ncc(C(=O)NO)cn3)CC2)c2ccccc21 [quisinostat]
Method in brief: as §1

tipifarnib = compound: Cn1cncc1[C@@](N)(c1ccc(Cl)cc1)c1ccc2c(c1)c(-c1cccc(Cl)c1)cc(=O)n2C [tipifarnib]
Method in brief: as §1

[4] = compound: NC(=O)Nc1cc(-c2cccc(F)c2)sc1C(=O)N[C@H]1CCCNC1
Method in brief: as §1

[5] = compound: NC(=O)c1cnc(N[C@@H]2CCCC[C@@H]2N)nc1Nc1cccc(-n2nccn2)c1
Method in brief: as §1

[6] = compound: NC1(c2ccc(-c3nc4ccn5c(=O)[nH]nc5c4cc3-c3ccccc3)cc2)CCC1
Method in brief: as §1

Target | log2 fold change (nilotinib) | log2 fold change [1] | log2 fold change (dasatinib) | log2 fold change [2] | log2 fold change [3] | log2 fold change (quisinostat) | log2 fold change (tipifarnib) | log2 fold change [4] | log2 fold change [5] | log2 fold change [6]
RAB2B (UniProt Q8WUD1) | inactive: 0.051 | inactive: -0.024 | inactive: 0.001 | inactive: -0.001 | inactive: -0.036 | inactive: 0.048 | inactive: -0.017 | inactive: -0.03 | inactive: -0.024 | inactive: -0.035
RABGAP1L isoform 5 (UniProt Q5R372) | inactive: 0.005 | inactive: 0 | inactive: -0.064 | inactive: 0.013 | inactive: 0.067 | inactive: -0.051 | inactive: 0.03 | inactive: -0.035 | inactive: 0.055 | inactive: 0.05
RAB18 (UniProt Q9NP72) | inactive: -0.052 | inactive: 0.055 | inactive: 0.052 | inactive: -0.057 | inactive: 0.054 | inactive: 0.034 | inactive: -0.075 | inactive: -0.004 | inactive: 0.057 | inactive: 0.14
RAB6D (UniProt Q53S08) | inactive: -0.028 | inactive: -0.019 | inactive: -0.004 | inactive: 0.111 | inactive: -0.008 | inactive: -0.056 | inactive: -0.162 | inactive: -0.006 | inactive: -0.013 | inactive: -0.064
PYURF (UniProt Q96I23) | inactive: -0.03 | inactive: 0.051 | inactive: 0.002 | inactive: 0.004 | inactive: 0.048 | inactive: 0.011 | inactive: -0.009 | inactive: -0.075 | inactive: -0.064 | inactive: -0.006
RABGGTA (UniProt Q92696) | inactive: -0.019 | inactive: 0.003 | inactive: 0.072 | inactive: 0.037 | inactive: 0.011 | inactive: -0.041 | inactive: -0.017 | inactive: 0.014 | inactive: 0.006 | inactive: -0.136
QARS (UniProt P47897) | inactive: -0.012 | inactive: -0.024 | inactive: -0.068 | inactive: -0.03 | inactive: 0.049 | inactive: 0.008 | inactive: -0.023 | inactive: 0.043 | inactive: -0.002 | inactive: 0
RAPGEF1 isoform 3 (UniProt Q13905) | inactive: -0.011 | inactive: 0.032 | inactive: -0.028 | inactive: 0.009 | inactive: 0.014 | inactive: 0 | inactive: -0.057 | inactive: -0.013 | inactive: -0.002 | inactive: -0.007
QSER1, A0A3B3IRW6 | inactive: -0.028 | inactive: 0.056 | inactive: 0.018 | inactive: 0.042 | inactive: 0.052 | inactive: -0.117 | inactive: -0.048 | inactive: 0.064 | inactive: -0.027 | inactive: -0.048
QPCTL (UniProt Q9NXS2) | inactive: 0.021 | inactive: 0.02 | inactive: -0.06 | inactive: 0.017 | inactive: 0.033 | inactive: 0.046 | inactive: -0.005 | inactive: -0.041 | inactive: -0.007 | inactive: 0.02
RAB8A (UniProt P61006) | inactive: -0.043 | inactive: -0.009 | inactive: -0.028 | inactive: -0.1 | inactive: 0.006 | inactive: 0.091 | inactive: -0.059 | inactive: -0.064 | inactive: -0.048 | inactive: 0.042
QDPR (UniProt P09417) | inactive: -0.029 | inactive: -0.013 | inactive: -0.031 | inactive: 0.047 | inactive: 0.011 | inactive: -0.029 | inactive: 0.008 | inactive: -0.004 | inactive: 0.004 | inactive: 0.002
RAD9A (UniProt Q99638) | inactive: -0.021 | inactive: -0.005 | inactive: -0.025 | inactive: -0.026 | inactive: 0 | inactive: -0.023 | inactive: 0.013 | inactive: -0.019 | inactive: 0.031 | inactive: 0.009
RANBP9 (UniProt Q96S59) | inactive: 0.019 | inactive: -0.009 | inactive: -0.005 | inactive: -0.028 | inactive: -0.015 | inactive: -0.031 | inactive: 0 | inactive: 0.031 | inactive: 0.022 | inactive: -0.049
RANBP10 (UniProt Q6VN20) | inactive: 0.009 | inactive: 0.015 | inactive: -0.04 | inactive: 0.043 | inactive: 0.016 | inactive: -0.008 | inactive: 0.001 | inactive: 0.029 | inactive: 0.015 | inactive: 0.004
RACK1 (UniProt P63244) | inactive: -0.003 | inactive: 0.003 | inactive: -0.029 | inactive: 0 | inactive: 0.021 | inactive: 0.071 | inactive: 0.004 | inactive: -0.03 | inactive: -0.008 | inactive: -0.007
RAD54B (UniProt Q9Y620) | inactive: -0.092 | inactive: -0.043 | inactive: -0.054 | inactive: -0.035 | inactive: 0.001 | inactive: -0.341 | inactive: 0.064 | inactive: -0.002 | – | –
RAB18 isoform 2 (UniProt Q9NP72) | inactive: -0.028 | inactive: 0.057 | inactive: 0.011 | inactive: -0.038 | inactive: -0.009 | inactive: 0.04 | inactive: -0.016 | inactive: 0.014 | inactive: -0.055 | inactive: -0.004
PYHIN1 (UniProt Q6K0P9) | inactive: -0.111 | inactive: 0.07 | inactive: -0.017 | inactive: 0.312 | inactive: 0.086 | inactive: 0.055 | inactive: 0.191 | inactive: -0.192 | inactive: -0.114 | –
RAB8B (UniProt Q92930) | inactive: -0.136 | inactive: -0.011 | inactive: -0.038 | inactive: -0.033 | inactive: -0.096 | inactive: -0.035 | inactive: 0.075 | inactive: 0.019 | inactive: 0.099 | inactive: 0.029
RABGEF1 isoform 3 (UniProt Q9UJ41) | inactive: -0.005 | inactive: -0.019 | inactive: 0.01 | inactive: 0.011 | inactive: 0.027 | inactive: -0.028 | inactive: 0.001 | inactive: 0.017 | inactive: -0.006 | inactive: -0.03
RALY (UniProt Q9UKM9) | inactive: -0.026 | inactive: 0.018 | inactive: 0.032 | inactive: 0.049 | inactive: -0.004 | inactive: -0.094 | inactive: -0.019 | inactive: 0.016 | inactive: 0.013 | inactive: -0.103
QRICH1 (UniProt Q2TAL8) | inactive: -0.005 | inactive: 0.008 | inactive: -0.1 | inactive: -0.034 | inactive: 0.034 | inactive: -0.047 | inactive: 0.004 | inactive: 0.019 | inactive: -0.003 | inactive: 0.019
RAD51AP1 (UniProt Q96B01) | inactive: 0.031 | inactive: 0.007 | inactive: -0.028 | inactive: 0.035 | inactive: -0.029 | inactive: -0.144 | inactive: 0.004 | inactive: 0.022 | inactive: 0.003 | inactive: -0.035
PXMP4 (UniProt Q9Y6I8) | inactive: -0.011 | inactive: 0.014 | inactive: 0.078 | inactive: 0.013 | inactive: -0.092 | inactive: -0.146 | active: 0.846 | inactive: 0.018 | inactive: -0.018 | inactive: -0.215
RAD17 (UniProt O75943) | inactive: -0.027 | inactive: 0.073 | inactive: -0.064 | inactive: -0.023 | inactive: 0 | inactive: -0.032 | inactive: -0.085 | inactive: 0.038 | – | –
RABGGTB (UniProt P53611) | inactive: 0.005 | inactive: 0.003 | inactive: 0.017 | inactive: 0.006 | inactive: -0.009 | inactive: -0.02 | inactive: -0.013 | inactive: 0.033 | inactive: -0.016 | inactive: 0.031
RAB24 (UniProt Q969Q5) | inactive: -0.012 | inactive: -0.024 | inactive: 0.032 | inactive: 0.007 | inactive: -0.016 | inactive: -0.013 | inactive: 0.008 | inactive: -0.019 | inactive: -0.036 | inactive: 0.008
RANBP3 isoform 2 (UniProt Q9H6Z4) | inactive: -0.04 | inactive: -0.026 | inactive: 0.061 | inactive: -0.034 | inactive: 0.162 | inactive: -0.117 | inactive: 0.041 | inactive: 0.019 | inactive: 0.028 | –
RABGAP1 (UniProt Q9Y3P9) | inactive: 0.014 | inactive: -0.005 | inactive: -0.022 | inactive: 0.046 | inactive: -0.003 | inactive: -0.017 | inactive: -0.013 | inactive: 0.015 | inactive: 0.025 | inactive: 0

Some of the entries so far, tab-delimited.
Target	log2 fold change (nilotinib)	log2 fold change [1]	log2 fold change (dasatinib)	log2 fold change [2]	log2 fold change [3]	log2 fold change (quisinostat)	log2 fold change (tipifarnib)	log2 fold change [4]	log2 fold change [5]	log2 fold change [6]
RABGGTA (UniProt Q92696)	inactive: -0.019	inactive: 0.003	inactive: 0.072	inactive: 0.037	inactive: 0.011	inactive: -0.041	inactive: -0.017	inactive: 0.014	inactive: 0.006	inactive: -0.136
RAPGEF1 isoform 3 (UniProt Q13905)	inactive: -0.011	inactive: 0.032	inactive: -0.028	inactive: 0.009	inactive: 0.014	inactive: 0	inactive: -0.057	inactive: -0.013	inactive: -0.002	inactive: -0.007
RAD9A (UniProt Q99638)	inactive: -0.021	inactive: -0.005	inactive: -0.025	inactive: -0.026	inactive: 0	inactive: -0.023	inactive: 0.013	inactive: -0.019	inactive: 0.031	inactive: 0.009
RAD54B (UniProt Q9Y620)	inactive: -0.092	inactive: -0.043	inactive: -0.054	inactive: -0.035	inactive: 0.001	inactive: -0.341	inactive: 0.064	inactive: -0.002	–	–
RAB18 isoform 2 (UniProt Q9NP72)	inactive: -0.028	inactive: 0.057	inactive: 0.011	inactive: -0.038	inactive: -0.009	inactive: 0.04	inactive: -0.016	inactive: 0.014	inactive: -0.055	inactive: -0.004
RAB8B (UniProt Q92930)	inactive: -0.136	inactive: -0.011	inactive: -0.038	inactive: -0.033	inactive: -0.096	inactive: -0.035	inactive: 0.075	inactive: 0.019	inactive: 0.099	inactive: 0.029
PXMP4 (UniProt Q9Y6I8)	inactive: -0.011	inactive: 0.014	inactive: 0.078	inactive: 0.013	inactive: -0.092	inactive: -0.146	active: 0.846	inactive: 0.018	inactive: -0.018	inactive: -0.215
RABGGTB (UniProt P53611)	inactive: 0.005	inactive: 0.003	inactive: 0.017	inactive: 0.006	inactive: -0.009	inactive: -0.02	inactive: -0.013	inactive: 0.033	inactive: -0.016	inactive: 0.031

From the supplement of paper PMC10849652
